Reference: the supplement of paper PMC3334620
Whole data set: some 33,000 sequences, median “E-score (-0.5 to 0.5)” near -0.015, cut for the highest 2% near 0.3. The list shows a part of the results.

These sequences were tested against T1, Abf1 (UniProt P14164) (assay: PBM E-score (8-mer binding enrichment) (E-score (-0.5 to 0.5)); higher = stronger / more preferred TF binding). Details: protein concentration: 200 nM; construct: GST-full length.
T1 sequence: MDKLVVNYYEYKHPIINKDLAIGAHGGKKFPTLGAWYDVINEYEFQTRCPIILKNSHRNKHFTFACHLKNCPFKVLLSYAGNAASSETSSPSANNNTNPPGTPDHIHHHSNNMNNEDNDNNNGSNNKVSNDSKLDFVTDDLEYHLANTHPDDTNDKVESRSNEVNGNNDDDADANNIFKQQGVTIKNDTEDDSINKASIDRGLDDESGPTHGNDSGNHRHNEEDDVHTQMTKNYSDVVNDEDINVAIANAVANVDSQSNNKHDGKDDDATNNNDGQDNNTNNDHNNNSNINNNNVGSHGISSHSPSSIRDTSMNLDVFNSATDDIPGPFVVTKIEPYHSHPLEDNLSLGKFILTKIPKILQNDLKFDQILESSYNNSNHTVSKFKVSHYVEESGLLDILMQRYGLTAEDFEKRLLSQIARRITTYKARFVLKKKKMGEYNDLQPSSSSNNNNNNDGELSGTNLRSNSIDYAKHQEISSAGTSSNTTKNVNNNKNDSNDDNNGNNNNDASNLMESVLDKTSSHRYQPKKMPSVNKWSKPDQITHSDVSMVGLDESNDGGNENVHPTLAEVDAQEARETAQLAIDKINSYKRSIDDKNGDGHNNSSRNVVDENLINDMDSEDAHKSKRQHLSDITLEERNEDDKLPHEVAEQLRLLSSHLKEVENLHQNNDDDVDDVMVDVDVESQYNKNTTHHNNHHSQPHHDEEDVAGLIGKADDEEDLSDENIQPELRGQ
In short: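 Universal all-10-mer Agilent arrays, fresh or stripped once, were converted to double-stranded form by primer extension. GST-tagged yeast transcription factors from PURExpress in vitro transcription/translation, full-length or DNA-binding domain only, were applied at about 100-200 nM and detected with fluorescent anti-GST. After masliner normalisation, the Universal PBM Analysis Suite scored each ungapped eight-base word together with its reverse complement by E-score.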

Row | Sequence | PBM E-score
1 | CAGGACCG | -0.182
2 | CTACAGGA | -0.204
3 | AAATGATC | 0.228
4 | CGGGCTCC | -0.173
5 | ACAGGATC | -0.0888
6 | CGTGTGTC | 0.138
7 | ATGCTTCG | 0.134
8 | ACGTTTAG | 0.135
9 | GCCAATTA | 0.0273
10 | GAAACGAA | 0.149
11 | AAAATATG | 0.174
12 | CGGGACTA | -0.0895
13 | CTCACGTC | 0.0288
14 | CGAAGGGC | -0.116
15 | CCCAATTA | -0.154
16 | CCACATGA | 0.139
17 | GAAGTGAC | 0.411
18 | CTATCATA | 0.143
19 | AAACGACT | 0.152
20 | CCCATTTC | -0.182
21 | GTGCGCTA | -0.207
22 | AAATAGCT | -0.066
23 | CTGTTCAA | -0.0275
24 | CACGCTTC | -0.106
25 | ATGGGAAT | -0.165

Row | Sequence | PBM E-score
26 | GCATGCCA | -0.173
27 | CAAAGGCA | -0.0351
28 | TCGTCCAA | 0.22
29 | TATTTTGA | 0.0197
30 | GCCATTTA | 0.0328
31 | CAGCATCA | 0.0773
32 | ACTATACT | 0.118
33 | TTCCCCAA | -0.0413
34 | CAAGTTAA | 0.046
35 | CCCAGCAG | -0.141
36 | AACTGGCA | -0.114
37 | CCGCATGC | -0.15
38 | CGGTACCC | -0.0287
39 | GCGAATAC | 0.0988
40 | AACAATGG | 0.0221
41 | AACTCAAT | -0.0924
42 | AATGTTCG | -0.0357
43 | CCAGGCCA | -0.22
44 | TAGACAAA | 0.0864
45 | CTGCATAC | 0.0495
46 | CCGTCCCC | -0.00209
47 | ATACTTTA | 0.094
48 | ATCTCTAG | -0.0235
49 | AGGACGAG | 0.0242
50 | ACTCATAT | -0.0587

Shown as comma-separated lines: entries from further up.
Row,Sequence,PBM E-score
32,ACTATACT,0.118
33,TTCCCCAA,-0.0413
34,CAAGTTAA,0.046
36,AACTGGCA,-0.114
37,CCGCATGC,-0.15
38,CGGTACCC,-0.0287
50,ACTCATAT,-0.0587

(cont.)

Row | Sequence | PBM E-score
51 | AAAGTGGA | -0.0539
52 | CGCGCTTA | -0.0471
53 | CATTTACA | 0.0271
54 | CTAGTTTA | -0.0332
55 | AATTGTGT | -0.122
56 | GAGAGGCC | -0.201
57 | GGTTGATA | 0.0997
58 | CTTTGCGA | -0.122
59 | AAGGCCTA | -0.117
60 | ACCCTCTG | -0.117
61 | ACTTGACG | 0.026
62 | GAAAGGTC | 0.174
63 | GCATGTTA | 0.00387
64 | CGTGTTAG | 0.186
65 | ATACGGTG | 0.297
66 | AACTACCT | -0.102
67 | CCGGTAAC | -0.117
68 | GCGCAACA | -0.123
69 | ACGACGTA | 0.277
70 | CTAAAGCC | -0.291
71 | ATAAGTTG | -0.0266
72 | ATCAACAA | 0.146
73 | ACGATGCC | -0.0797
74 | GTACGTGA | 0.252
75 | AGGAAGTG | 0.0629

Row | Sequence | PBM E-score
76 | CCGACACC | -0.195
77 | ATGAAATG | -0.0848
78 | GGCTGAAC | -0.0746
79 | GCGTCTTA | -0.22
80 | AATGATTA | 0.273
81 | AAGGATCC | -0.0653
82 | CGTCTCGA | 0.162
83 | GGCGACAC | -0.0713
84 | CCGGCAAG | -0.0614
85 | GTCTATGA | 0.0741
86 | AAATATTG | 0.164
87 | AGGCTAAA | -0.111
88 | CACCGTTA | 0.163
89 | GGCGGGTA | -0.179
90 | AAGGATGT | -0.00902
91 | AGTTCATC | -0.0817
92 | CAAAACAA | -0.055
93 | AGGCGCTA | 0.0002
94 | CCGCCCAC | -0.207
95 | CTTGCACC | -0.216
96 | ACGCACAG | 0.0824
97 | CACTCATG | -0.00099
98 | GACATTCC | 0.0184
99 | CGAGGATC | 0.101
100 | AAGGGCTA | -0.0783

Row | Sequence | PBM E-score
101 | GGGTGACC | 0.188
102 | CCTGGGAG | -0.28
103 | GCGATGCA | -0.181
104 | GAAGATCA | 0.191
105 | AACGTTAC | 0.0595
106 | AACTATAC | -0.0415
107 | CCAGGCTC | -0.183
108 | GCCAGGTA | -0.00336
109 | AAGATCAC | 0.325
110 | CCGGGTTC | -0.167
111 | GAGAGCCA | -0.14
112 | TATCCGAA | 0.0853
113 | ACCGACAT | 0.169
114 | GTCGCGAA | 0.188
115 | ACCAAACC | 0.0479
116 | CGAACAGA | -0.0195
117 | ATGTCCTG | -0.0816
118 | AAAATCAT | 0.266
119 | AATGGAGT | -0.0717
120 | ACCTAGCT | -0.202
121 | GACCACCA | -0.132
122 | AGGTCTTC | -0.0691
123 | GATCTTTA | 0.095
124 | ATTGGATG | 0.122
125 | AAACCCGG | -0.0208

Row | Sequence | PBM E-score
126 | AATTTCTA | 0.066
127 | GTGCCCCA | -0.19
128 | GGGCGATA | -0.15
129 | CAGATAAA | 0.0312
130 | TCAGACAA | -0.23
131 | AATCGCAG | 0.0804
132 | CGGTCTGA | -0.0851
133 | AATATCGG | 0.187
134 | GTTGCCAA | -0.00135
135 | ATTAGTCA | 0.176
136 | AAGCAGCA | -0.303
137 | AGAAATGC | -0.0121
138 | ACTATTAA | 0.106
139 | ATTCTGGA | 0.0133
140 | CGAGGAAC | 0.108
141 | GGCCATTA | 0.00169
142 | ACGCGATA | 0.262
143 | CAGTTGGC | -0.152
144 | CACATACG | 0.0892
145 | CGTGTACC | 0.159
146 | GTCTGGCA | -0.192
147 | AACTTAGG | -0.0107
148 | ACGATAGG | 0.233
149 | AGAGTAAC | -0.0184
150 | GACGTTAA | 0.261

Row | Sequence | PBM E-score
151 | TCAACTAA | 0.0884
152 | CCGAAAAA | 0.229
153 | CCATACAA | 0.0761
154 | GTTCAGGA | -0.0751
155 | AAAAATCA | 0.219
156 | GGGTGCGA | -0.103
157 | TGTTCAAA | 0.0757
158 | AGGTGTCA | -0.0121
159 | CTTAGGAA | 0.0712
160 | GAGACGAC | 0.103
161 | CAAATTAC | -0.0545
162 | GCGTTAGC | -0.0286
163 | CACTTTCC | -0.0647
164 | ACCCGAAG | -0.225
165 | ACCGTAGT | 0.204
166 | TGTGTAAA | 0.031
167 | ATCATAGG | -0.00462
168 | ATGAATTC | 0.0825
169 | AAACCCAA | 0.141
170 | CAATCACA | 0.0365
171 | AACAATCA | 0.167
172 | ACCCGCGC | -0.0888
173 | CGACCTAC | 0.0718
174 | GATGGGGC | -0.131
175 | CCAAACTC | -0.114

Row | Sequence | PBM E-score
176 | AACGCTCG | 0.0271
177 | AAAATCGC | 0.168
178 | CGGGGAAC | -0.124
179 | CCGTACAG | 0.21
180 | GGCCTACA | -0.149
181 | CTGGGGTA | 0.00583
182 | GCCCACCC | -0.0706
183 | GTTACTAA | 0.202
184 | CTGTTCGC | -0.0964
185 | AATCGCCT | 0.0339
186 | ATGGCCAT | -0.118
187 | ATACCGTA | 0.249
188 | CTTAGATA | 0.148
189 | GGGTCTAA | -0.112
190 | GTCGGGTA | 0.0556
191 | GTTGTGAA | 0.0499
192 | TCCTCTCA | -0.095
193 | GATGGAAA | -0.0625
194 | ACCAAGTA | 0.131
195 | ACGGGAAT | 0.132
196 | CTATTGTC | 0.0788
197 | ATTTACTA | 0.171
198 | GTATATGA | 0.12
199 | ACGGCAGG | 0.0975
200 | GTTGGAGA | -0.0467

Reformatted with each value named: part of the list above.
GTTGTGAA
  PBM E-score = 0.0499
TCCTCTCA
  PBM E-score = -0.095

Continuation:

Row | Sequence | PBM E-score
201 | CTCTCCCA | -0.061
202 | GGGTTCAA | -0.105
203 | ATTTTTCG | 0.229
204 | CCGGATAA | 0.0285
205 | AATAGCTA | 0.103
206 | GGGGTAGA | -0.0184
207 | GCTCTTAA | 0.0207
208 | CCTGTGAA | -0.0187
209 | GTATGGAA | -0.074
210 | GATAGTCA | 0.247
211 | TACACAAA | 0.0301
212 | CCACCCAG | -0.115
213 | AACTACAC | 0.0268
214 | CCGCCAAA | 0.109
215 | CATATTCC | -0.229
216 | CAGGTACA | -0.0696
217 | GGGCTCCA | -0.268
218 | ATCTATAA | 0.185
219 | AAAGCATA | -0.0894

Six consecutive records already listed:
Row | Sequence | PBM E-score
208 | CCTGTGAA | -0.0187
209 | GTATGGAA | -0.074
210 | GATAGTCA | 0.247
211 | TACACAAA | 0.0301
212 | CCACCCAG | -0.115
213 | AACTACAC | 0.0268
